From the supplement of paper PMC11732987, “Enantioselective OTUD7B fragment discovery through chemoproteomics screening and high-throughput optimisation” (Communications Chemistry, 2025)
This is one part of the list. The data scatter; read single values as rough.

Sequences of proteins named here, by UniProt entry; tags and fusion partners are left off. A change or cut given only in a name is not applied to a line headed by its entry.
UniProt Q86VI3: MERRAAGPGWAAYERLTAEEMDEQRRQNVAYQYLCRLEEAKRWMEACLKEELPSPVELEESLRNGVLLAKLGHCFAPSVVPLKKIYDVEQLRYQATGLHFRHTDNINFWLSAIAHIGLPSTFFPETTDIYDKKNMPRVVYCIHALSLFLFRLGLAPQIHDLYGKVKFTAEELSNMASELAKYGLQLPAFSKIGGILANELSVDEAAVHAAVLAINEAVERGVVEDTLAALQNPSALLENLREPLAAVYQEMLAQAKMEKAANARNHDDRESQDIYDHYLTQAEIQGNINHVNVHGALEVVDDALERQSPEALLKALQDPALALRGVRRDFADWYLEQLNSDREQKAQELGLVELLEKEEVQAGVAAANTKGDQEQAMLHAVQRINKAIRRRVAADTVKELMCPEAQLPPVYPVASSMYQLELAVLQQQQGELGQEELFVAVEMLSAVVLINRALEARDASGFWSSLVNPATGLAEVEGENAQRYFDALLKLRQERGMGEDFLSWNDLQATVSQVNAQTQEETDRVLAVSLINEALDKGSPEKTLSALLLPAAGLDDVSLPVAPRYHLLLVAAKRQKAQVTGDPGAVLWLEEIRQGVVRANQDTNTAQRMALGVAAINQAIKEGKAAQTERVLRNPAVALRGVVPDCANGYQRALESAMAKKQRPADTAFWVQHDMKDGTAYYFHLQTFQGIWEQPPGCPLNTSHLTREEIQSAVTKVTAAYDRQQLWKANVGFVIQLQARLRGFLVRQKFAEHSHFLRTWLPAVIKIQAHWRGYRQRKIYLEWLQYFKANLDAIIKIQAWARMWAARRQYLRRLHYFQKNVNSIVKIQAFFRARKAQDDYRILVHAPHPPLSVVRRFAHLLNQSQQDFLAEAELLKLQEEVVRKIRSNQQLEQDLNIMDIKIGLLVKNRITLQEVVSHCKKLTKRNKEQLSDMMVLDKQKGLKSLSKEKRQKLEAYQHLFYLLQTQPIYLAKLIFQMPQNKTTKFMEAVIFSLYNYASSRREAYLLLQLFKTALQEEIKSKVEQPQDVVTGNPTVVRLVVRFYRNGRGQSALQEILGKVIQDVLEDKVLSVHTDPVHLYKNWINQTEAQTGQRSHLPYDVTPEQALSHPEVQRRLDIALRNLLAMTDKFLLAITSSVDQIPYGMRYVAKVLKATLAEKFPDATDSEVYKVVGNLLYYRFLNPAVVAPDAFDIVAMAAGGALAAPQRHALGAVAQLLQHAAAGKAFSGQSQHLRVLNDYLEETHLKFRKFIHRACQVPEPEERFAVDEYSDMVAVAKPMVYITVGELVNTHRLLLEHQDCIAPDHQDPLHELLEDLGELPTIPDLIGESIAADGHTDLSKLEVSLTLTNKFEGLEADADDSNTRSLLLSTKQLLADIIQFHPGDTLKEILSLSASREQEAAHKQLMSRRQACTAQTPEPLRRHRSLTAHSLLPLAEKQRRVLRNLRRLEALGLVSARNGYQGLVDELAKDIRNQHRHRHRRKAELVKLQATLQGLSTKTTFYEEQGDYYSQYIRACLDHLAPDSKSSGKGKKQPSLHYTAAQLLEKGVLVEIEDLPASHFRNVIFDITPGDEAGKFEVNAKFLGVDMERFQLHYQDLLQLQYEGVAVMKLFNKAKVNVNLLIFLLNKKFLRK
UniProt P08069: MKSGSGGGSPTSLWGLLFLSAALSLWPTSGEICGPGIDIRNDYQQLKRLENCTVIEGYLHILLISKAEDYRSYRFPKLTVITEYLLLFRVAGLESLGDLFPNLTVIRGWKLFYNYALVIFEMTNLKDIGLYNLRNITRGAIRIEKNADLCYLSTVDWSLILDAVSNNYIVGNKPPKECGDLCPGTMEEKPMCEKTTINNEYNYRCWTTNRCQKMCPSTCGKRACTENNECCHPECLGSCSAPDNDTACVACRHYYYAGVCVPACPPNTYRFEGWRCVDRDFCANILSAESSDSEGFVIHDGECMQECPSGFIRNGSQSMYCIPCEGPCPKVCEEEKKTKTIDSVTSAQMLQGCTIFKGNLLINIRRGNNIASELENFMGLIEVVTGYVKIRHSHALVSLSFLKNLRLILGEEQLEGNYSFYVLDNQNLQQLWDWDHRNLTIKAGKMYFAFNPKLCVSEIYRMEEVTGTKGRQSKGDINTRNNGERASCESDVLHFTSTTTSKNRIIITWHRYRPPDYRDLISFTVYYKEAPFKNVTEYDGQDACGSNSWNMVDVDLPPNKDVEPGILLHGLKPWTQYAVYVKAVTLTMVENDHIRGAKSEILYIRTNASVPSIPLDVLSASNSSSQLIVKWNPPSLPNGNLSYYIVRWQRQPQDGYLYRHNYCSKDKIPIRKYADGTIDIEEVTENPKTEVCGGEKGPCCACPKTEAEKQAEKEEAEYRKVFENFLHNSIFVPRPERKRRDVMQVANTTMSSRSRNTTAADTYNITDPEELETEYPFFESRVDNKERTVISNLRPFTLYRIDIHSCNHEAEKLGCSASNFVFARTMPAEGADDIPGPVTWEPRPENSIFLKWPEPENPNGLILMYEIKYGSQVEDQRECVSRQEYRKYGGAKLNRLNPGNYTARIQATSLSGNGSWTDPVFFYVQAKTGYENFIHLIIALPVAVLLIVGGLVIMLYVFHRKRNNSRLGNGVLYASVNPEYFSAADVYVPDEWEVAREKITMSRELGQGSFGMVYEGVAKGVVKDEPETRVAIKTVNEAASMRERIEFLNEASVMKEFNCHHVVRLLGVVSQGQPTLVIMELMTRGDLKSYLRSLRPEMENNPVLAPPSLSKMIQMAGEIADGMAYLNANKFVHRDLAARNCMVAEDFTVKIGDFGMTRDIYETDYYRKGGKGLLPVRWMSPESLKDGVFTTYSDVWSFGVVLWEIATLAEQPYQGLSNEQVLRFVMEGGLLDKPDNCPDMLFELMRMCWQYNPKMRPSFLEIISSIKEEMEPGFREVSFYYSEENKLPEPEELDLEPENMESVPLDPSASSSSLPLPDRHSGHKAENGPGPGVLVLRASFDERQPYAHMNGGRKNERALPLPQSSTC
UniProt Q9Y6K9, whole entry, looked up: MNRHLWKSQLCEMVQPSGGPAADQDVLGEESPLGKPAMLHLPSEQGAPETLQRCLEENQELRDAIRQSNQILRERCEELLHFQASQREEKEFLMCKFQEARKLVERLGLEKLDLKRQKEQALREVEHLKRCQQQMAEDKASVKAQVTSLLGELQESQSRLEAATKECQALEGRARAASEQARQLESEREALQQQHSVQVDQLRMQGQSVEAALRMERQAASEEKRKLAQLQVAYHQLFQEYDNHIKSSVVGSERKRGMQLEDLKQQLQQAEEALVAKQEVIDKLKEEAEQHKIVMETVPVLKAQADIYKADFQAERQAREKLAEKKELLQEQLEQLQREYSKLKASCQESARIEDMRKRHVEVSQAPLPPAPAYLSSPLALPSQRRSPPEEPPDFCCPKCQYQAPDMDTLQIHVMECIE
UniProt Q3SXM5: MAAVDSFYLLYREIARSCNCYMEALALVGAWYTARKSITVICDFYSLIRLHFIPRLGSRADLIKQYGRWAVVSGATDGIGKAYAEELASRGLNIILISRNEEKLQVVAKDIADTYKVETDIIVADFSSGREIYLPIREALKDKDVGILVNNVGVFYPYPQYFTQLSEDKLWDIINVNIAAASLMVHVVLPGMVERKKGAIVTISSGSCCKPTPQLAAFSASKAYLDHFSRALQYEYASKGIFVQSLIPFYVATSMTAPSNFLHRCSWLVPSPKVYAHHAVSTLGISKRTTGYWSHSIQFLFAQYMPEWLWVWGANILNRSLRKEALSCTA
UniProt Q8WYA0: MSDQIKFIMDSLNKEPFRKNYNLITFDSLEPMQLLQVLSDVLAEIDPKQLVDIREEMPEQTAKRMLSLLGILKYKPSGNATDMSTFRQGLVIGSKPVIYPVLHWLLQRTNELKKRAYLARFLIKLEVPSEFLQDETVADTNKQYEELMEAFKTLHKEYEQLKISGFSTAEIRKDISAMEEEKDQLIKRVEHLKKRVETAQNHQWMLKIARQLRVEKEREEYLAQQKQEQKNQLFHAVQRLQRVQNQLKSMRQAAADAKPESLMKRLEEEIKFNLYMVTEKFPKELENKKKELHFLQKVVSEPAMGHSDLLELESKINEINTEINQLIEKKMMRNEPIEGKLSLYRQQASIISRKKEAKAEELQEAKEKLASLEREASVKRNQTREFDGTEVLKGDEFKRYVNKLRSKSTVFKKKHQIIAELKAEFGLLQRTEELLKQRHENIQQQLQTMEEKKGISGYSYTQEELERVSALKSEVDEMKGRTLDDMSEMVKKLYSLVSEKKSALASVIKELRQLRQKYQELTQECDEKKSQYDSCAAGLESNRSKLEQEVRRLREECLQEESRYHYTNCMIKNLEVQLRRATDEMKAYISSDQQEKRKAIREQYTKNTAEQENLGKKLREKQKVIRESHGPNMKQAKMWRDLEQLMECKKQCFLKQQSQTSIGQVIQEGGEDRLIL
UniProt O14920: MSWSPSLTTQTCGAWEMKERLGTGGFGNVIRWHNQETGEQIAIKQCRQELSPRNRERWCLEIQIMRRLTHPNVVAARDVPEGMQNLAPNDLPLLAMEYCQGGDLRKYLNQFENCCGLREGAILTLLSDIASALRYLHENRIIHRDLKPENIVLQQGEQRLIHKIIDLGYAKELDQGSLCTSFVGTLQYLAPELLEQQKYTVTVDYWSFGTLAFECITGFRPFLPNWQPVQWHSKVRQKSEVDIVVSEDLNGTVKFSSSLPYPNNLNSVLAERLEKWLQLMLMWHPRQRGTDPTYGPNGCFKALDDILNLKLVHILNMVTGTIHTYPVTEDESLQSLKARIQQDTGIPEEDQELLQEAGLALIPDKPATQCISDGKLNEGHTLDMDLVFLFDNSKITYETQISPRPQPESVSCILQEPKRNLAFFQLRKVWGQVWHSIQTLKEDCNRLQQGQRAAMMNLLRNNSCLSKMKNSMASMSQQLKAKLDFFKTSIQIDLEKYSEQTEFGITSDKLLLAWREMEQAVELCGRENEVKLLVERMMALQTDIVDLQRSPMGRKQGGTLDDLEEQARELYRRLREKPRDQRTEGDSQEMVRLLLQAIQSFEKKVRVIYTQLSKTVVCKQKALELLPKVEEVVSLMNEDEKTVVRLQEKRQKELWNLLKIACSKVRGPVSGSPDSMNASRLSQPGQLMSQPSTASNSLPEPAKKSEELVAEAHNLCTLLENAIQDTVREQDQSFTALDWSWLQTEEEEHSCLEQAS
UniProt Q9UL03, whole entry, looked up: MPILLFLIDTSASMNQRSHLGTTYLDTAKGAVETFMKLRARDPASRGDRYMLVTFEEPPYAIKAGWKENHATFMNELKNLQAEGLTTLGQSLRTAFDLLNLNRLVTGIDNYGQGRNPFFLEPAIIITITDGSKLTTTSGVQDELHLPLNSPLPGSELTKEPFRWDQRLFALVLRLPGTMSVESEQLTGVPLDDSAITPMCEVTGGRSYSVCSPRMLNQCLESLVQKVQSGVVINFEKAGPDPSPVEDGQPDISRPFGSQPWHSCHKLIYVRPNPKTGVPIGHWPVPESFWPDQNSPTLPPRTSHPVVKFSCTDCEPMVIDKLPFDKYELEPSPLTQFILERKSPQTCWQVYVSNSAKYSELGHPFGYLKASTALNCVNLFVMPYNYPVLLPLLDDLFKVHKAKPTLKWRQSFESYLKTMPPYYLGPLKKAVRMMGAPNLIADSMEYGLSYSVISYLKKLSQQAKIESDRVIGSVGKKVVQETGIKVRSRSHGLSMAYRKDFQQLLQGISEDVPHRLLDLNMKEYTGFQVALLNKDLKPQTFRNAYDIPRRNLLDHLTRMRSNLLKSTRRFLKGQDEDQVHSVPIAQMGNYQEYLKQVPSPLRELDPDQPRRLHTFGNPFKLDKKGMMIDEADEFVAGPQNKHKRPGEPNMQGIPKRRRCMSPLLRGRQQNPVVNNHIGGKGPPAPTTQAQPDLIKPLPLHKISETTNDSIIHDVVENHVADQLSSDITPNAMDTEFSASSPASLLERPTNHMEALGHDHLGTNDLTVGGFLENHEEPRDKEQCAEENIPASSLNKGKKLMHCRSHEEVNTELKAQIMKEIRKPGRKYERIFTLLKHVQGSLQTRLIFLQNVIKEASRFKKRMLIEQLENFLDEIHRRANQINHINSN
UniProt Q00613: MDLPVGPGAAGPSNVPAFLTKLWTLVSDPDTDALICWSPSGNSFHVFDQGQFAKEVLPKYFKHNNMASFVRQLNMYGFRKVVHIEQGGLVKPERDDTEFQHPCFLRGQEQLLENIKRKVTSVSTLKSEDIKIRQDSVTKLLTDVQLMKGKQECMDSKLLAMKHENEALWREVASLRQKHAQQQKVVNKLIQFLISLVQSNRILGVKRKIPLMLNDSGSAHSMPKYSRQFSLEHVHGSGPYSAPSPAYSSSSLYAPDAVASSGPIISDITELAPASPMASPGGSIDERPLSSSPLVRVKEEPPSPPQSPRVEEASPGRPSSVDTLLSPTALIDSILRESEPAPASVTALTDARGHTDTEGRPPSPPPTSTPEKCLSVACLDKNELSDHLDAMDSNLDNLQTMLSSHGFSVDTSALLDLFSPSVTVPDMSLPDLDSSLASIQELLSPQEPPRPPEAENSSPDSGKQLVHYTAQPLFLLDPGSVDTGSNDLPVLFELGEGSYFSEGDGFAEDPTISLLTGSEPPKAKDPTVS

These targets were tested with ClCC(=O)N[C@H]1CCCc2ccccc12 (assay: log2 mean competition ratio of IA-DTB cysteine labelling (DMSO/compound) (log2 ratio); higher = stronger cysteine engagement by compound). Conditions: 50 µM; treatment time: 4 h; cell line lysate: HEK293T.
Protocol: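 IA-DTB competitive cysteine chemoproteomics in HEK293T RIPA lysate. Lysates were treated with compound 29 or 30 at 50 or 200 µM for 4 h, then IA-DTB (500 µM, 1 h), trypsin-digested, NeutrAvidin-enriched and analysed by diaPASEF. Competition ratio = intensity DMSO / intensity compound (n=4 treated, n=64 DMSO); binding: mean log2 CR ≥ 1 and p ≤ 0.05 plus QC filters. Target is the cysteine site.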
In the case of HSPH1 C245, the “log2 mean competition ratio” value is reported as -0.14. For IQGAP3 C919 (UniProt Q86VI3), the “log2 mean competition ratio” value was -0.305. In the case of IQGAP1 C1534 (UniProt P46940), the “log2 mean competition ratio” value is reported as 0.744. In the case of IMPA2 C152 (UniProt O14732), the “log2 mean competition ratio” value is reported as 0.097. With IPO11 C894 (UniProt Q9UI26) the “log2 mean competition ratio” value was -0.437. For IGF1R C488 (UniProt P08069), the “log2 mean competition ratio” value was -0.541. For IRAK1 C608 (UniProt P51617), the “log2 mean competition ratio” value was 0.134. For IKBKG C167 (UniProt Q9Y6K9), the “log2 mean competition ratio” value was 0.173. HSPA14 C335 (UniProt Q0VDF9) was tested, and the “log2 mean competition ratio” value was 0.0439. In the case of HTT C823 (UniProt P42858), the “log2 mean competition ratio” value is reported as -0.136. With HSDL1 C328 (UniProt Q3SXM5) the “log2 mean competition ratio” value was 0.138. In the case of IFT81 C557 (UniProt Q8WYA0), the “log2 mean competition ratio” value is reported as -0.292. In the case of HSPH1 C310, the “log2 mean competition ratio” value is reported as -0.38. With IKBKB C524 (UniProt O14920) the “log2 mean competition ratio” value was 0.467. For INTS6 C659 (UniProt Q9UL03), the “log2 mean competition ratio” value was -0.0706. In the case of HSPH1 C796, the “log2 mean competition ratio” value is reported as -0.278. In the case of IREB2 C178 (UniProt P48200), the “log2 mean competition ratio” value is reported as -0.00538. IQSEC1 C214 (UniProt Q6DN90) was tested, and the “log2 mean competition ratio” value was -0.126. HSF1 C153 (UniProt Q00613) was tested, and the “log2 mean competition ratio” value was 0.379. With HSF1 C103 (UniProt Q00613) the “log2 mean competition ratio” value was -0.305.

Same assay, conditions: 200 µM; treatment time: 4 h; cell line lysate: HEK293T
In the case of HSPH1 C245, the “log2 mean competition ratio” value is reported as -0.195. For IQGAP3 C919 (UniProt Q86VI3), the “log2 mean competition ratio” value was 0.0814. IQGAP1 C1534 (UniProt P46940) was tested, and the “log2 mean competition ratio” value was 0.0577. With IMPA2 C152 (UniProt O14732) the “log2 mean competition ratio” value was -0.0418. For IPO11 C894 (UniProt Q9UI26), the “log2 mean competition ratio” value was -0.17. In the case of IGF1R C488 (UniProt P08069), the “log2 mean competition ratio” value is reported as -0.199. With IRAK1 C608 (UniProt P51617) the “log2 mean competition ratio” value was 0.274. IKBKG C167 (UniProt Q9Y6K9) was tested, and the “log2 mean competition ratio” value was 0.222. With HSPA14 C335 (UniProt Q0VDF9) the “log2 mean competition ratio” value was 0.0249. With HTT C823 (UniProt P42858) the “log2 mean competition ratio” value was 0.276. For HSDL1 C328 (UniProt Q3SXM5), the “log2 mean competition ratio” value was 0.393. IFT81 C557 (UniProt Q8WYA0) was tested, and the “log2 mean competition ratio” value was 0.302. HSPH1 C310 was tested, and the “log2 mean competition ratio” value was -0.225. For IKBKB C524 (UniProt O14920), the “log2 mean competition ratio” value was -0.147. With INTS6 C659 (UniProt Q9UL03) the “log2 mean competition ratio” value was 0.648. With HSPH1 C796 the “log2 mean competition ratio” value was -0.275. For IREB2 C178 (UniProt P48200), the “log2 mean competition ratio” value was 0.328. For IQSEC1 C214 (UniProt Q6DN90), the “log2 mean competition ratio” value was -0.304. With HSF1 C153 (UniProt Q00613) the “log2 mean competition ratio” value was 0.621. With HSF1 C103 (UniProt Q00613) the “log2 mean competition ratio” value was 0.585.
